Measured values from PubChem BioAssay AID2551 (National Center for Advancing Translational Sciences (NCATS), 2010).
In all, about 310,000 compounds went through this assay and about 17,000 (5.5%) were called active. Inconclusive means that the source gave no clear call. Such entries were picked first, then a sample of the others. The call rests on the fitted dose curve; in most records, active means well fitted inhibition curve with a large enough effect; inconclusive means small, poorly fitted or top-dose-only effect, or effect the other way; inactive means no such curve, though single readings can be large or run the other way. A potency beside an inconclusive call is a rough fit, not a confirmed value.

By UniProt entry, the sequences of proteins in these tests, tags left out. Where a name states a change or a piece, a line headed by the entry shows the natural chain unless it says otherwise.
UniProt P51450: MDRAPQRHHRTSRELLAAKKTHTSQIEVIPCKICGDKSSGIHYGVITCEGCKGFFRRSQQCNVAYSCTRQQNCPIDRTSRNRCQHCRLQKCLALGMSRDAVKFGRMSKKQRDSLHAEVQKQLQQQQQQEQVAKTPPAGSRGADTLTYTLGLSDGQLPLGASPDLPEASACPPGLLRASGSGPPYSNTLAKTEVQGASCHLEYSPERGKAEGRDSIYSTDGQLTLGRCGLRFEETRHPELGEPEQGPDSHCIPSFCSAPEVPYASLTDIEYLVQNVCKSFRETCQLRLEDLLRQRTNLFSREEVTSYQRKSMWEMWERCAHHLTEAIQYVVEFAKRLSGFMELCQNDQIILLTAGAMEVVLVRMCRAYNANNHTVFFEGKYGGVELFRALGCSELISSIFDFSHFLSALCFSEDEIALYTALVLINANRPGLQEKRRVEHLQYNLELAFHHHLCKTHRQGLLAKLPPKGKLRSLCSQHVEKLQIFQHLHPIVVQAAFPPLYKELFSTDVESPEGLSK

molecular target: Nuclear receptor ROR-gamma (Mus musculus) (UniProt P51450); assay: qHTS for inhibitors of ROR gamma transcriptional activity; details: Drosophila S2 Gal4-RORgamma UAS-luciferase reporter, 20 h; series mostly up to 53.6 µM; further: nearly all actives have a fitted effect of over 60% in size
Outline: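 In this cell-based reporter format, copper sulfate (700 uM final) drives Gal4–ROR gamma fusion expression from a metallothionein promoter in Drosophila Schneider cells; compounds preincubated 1 hr, reporter read after 20 hr at ambient temperature.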
Potency means the concentration at half of the fitted maximal effect.

Potency, active:
Cc1ccc(NC(=S)N=Nc2c(O)[nH]c3ccccc23)cc1 0.316 µM
NC(=S)N/N=C\c1c(OCc2ccccc2Cl)ccc2ccccc12 1.12 µM
C/C(=N\NC(=S)NCc1ccccc1)c1ccc(C)o1 2.24 µM
Cc1cc(NC(=O)COC(=O)C2CCN(S(=O)(=O)c3c(Cl)cccc3Cl)CC2)no1 5.01 µM
Cc1ccccc1-n1c(-c2ccoc2C)n[nH]c1=S 10 µM

Potency, inactive:
N/C(Cc1ccccc1)=N\OC(=O)c1cccc2ccccc12
COc1ccccc1C(=O)N1CCN(C(=O)Cc2ccccc2)CC1
O=C(CCc1ccccc1)N1CCN(c2ccc(F)cc2)CC1
COc1ccc(-c2cc(=O)oc3cc(OCC(=O)Nc4ccc(CCO)cc4)ccc23)cc1
CC(CCc1ccco1)NC(=O)c1cccc2c1C(=O)N(C1CCCCC1)C2 (centres undefined)
COc1ccc(N2C(=O)C(Cl)=C(N3CCOCC3)C2=O)cc1
COc1cc(/C=N/NC(=O)c2ccccn2)ccc1OC(=O)c1ccc(Br)cc1
CC1CCc2nc3ccccc3c(C(=O)OCC(=O)NC3CCS(=O)(=O)C3)c2C1 (centres undefined)
COc1cc(C(=O)N2CCN(C(=O)c3cc(-c4ccccc4)n[nH]3)CC2)cc(OC)c1OC
CC1CCCN(C(=O)CN(C)S(=O)(=O)c2cccc3nsnc23)C1 (centres undefined)
Cc1cc(C)c(N)cc1C
COCc1c(C(=O)N/N=C(\C)c2ccncc2)nnn1-c1nonc1N

Potency, inconclusive:
COC(=O)c1cc(NCc2ccccc2F)ccc1N1CCOCC1 17.8 µM [activator, single point]
COc1ccccc1NC(=O)c1c(C)nn(-c2ccccc2)c1Cl 11.2 µM [activator, partial curve]
C/C=C/C=C/C(=O)Nc1cccc(C2=NOC3(C2)C[C@H](C(N)=O)N(C(=O)CC(c2ccccc2)c2ccccc2)C3)c1 (some centres undefined) 12.6 µM [activator, partial curve, poor fit]
COc1cc(/C=N/Nc2nc(N3CCCC3)nc(N3CCCC3)n2)ccc1OCc1ccccc1F 0.562 µM [inhibitor, full curve, poor fit]
COC(=O)C1=C(C)N(Cc2ccccc2)C(=NCC(C)C)N[C@H]1c1cccc(F)c1 35.5 µM [inhibitor, single point]
CCOc1cc(/C=C2\C(=O)N(CCc3ccc(OC)c(OC)c3)C(C)=C2C(=O)OC)ccc1O 7.94 µM [inhibitor, partial curve]
CCCC1(C(=O)OCC)NC(c2ccc(N(C)C)cc2)C2C(=O)N(c3ccc(OCC)cc3)C(=O)C21 (centres undefined) 35.5 µM [inhibitor, single point]
CN(C(=O)c1cccs1)c1ccc(OCC(=O)N2CCC(C(N)=O)CC2)cc1 17.8 µM [activator, single point]
COc1ccc(NC(=O)c2ccccc2N(Cc2ccccc2)S(C)(=O)=O)c(OC)c1 11.2 µM [activator, partial curve, poor fit]
CCCCCCCCN1C(=O)C(O)=C(C(C)=O)C1c1ccccn1 (centres undefined) 3.16 µM [activator, single point]
CC(C)NC(=O)COC(=O)c1cccc(NS(=O)(=O)/C=C/c2ccccc2)c1 12.6 µM [activator, single point]
COc1ccccc1C1c2c(C)nn(-c3ccccc3)c2NC(=O)C1NC(=O)c1ccccc1 (centres undefined) 10 µM [activator, partial curve]
O=C(Nc1ccccc1)OC1CC2CC1C1CCCC21 (centres undefined) 15.8 µM [inhibitor, single point]
CCc1ccc(N(C(=O)CCC(=O)Nc2cc(C)on2)C(C(=O)NC2CCCC2)c2ccco2)cc1 (centres undefined) 11.2 µM [activator, partial curve, poor fit]
CC(=O)Nc1ccc(S(=O)(=O)NCC(=O)OC(C)c2ccccc2Cl)cc1 (centres undefined) 14.1 µM [activator, single point]
Cc1ccc(CNC(=O)CSc2c3c(nc4ccc(Cl)cc24)CCCC3)o1 25.1 µM [inhibitor, single point]
Cc1ccc(NS(=O)(=O)c2c(C)nc3sccn3c2=O)cc1C 31.6 µM [activator, single point]
Cc1ccc(/C=C/C(=O)N2CCCC(C)C2)cc1 (centres undefined) 15.8 µM [inhibitor, single point]
COc1ccc(-c2noc(CCC(=O)Nc3cccnc3)n2)cc1 17.8 µM [inhibitor, partial curve, poor fit]
CS(=O)(=O)c1ccc(C(=O)N(CCc2ccccc2)Cc2ccccc2)cc1 15.8 µM [activator, single point]
O=c1[nH]c2ccccc2n1CCCSc1cnc2ccccc2n1 12.6 µM [activator, single point]
CCCC(=O)Nc1ccc(NC(=O)c2cccs2)cn1 10 µM [activator, partial curve]
Cc1ccc2cc(C(c3nnnn3CC3CCCO3)N3CCc4ccccc4C3)c(=O)[nH]c2c1 (centres undefined) 5.62 µM [inhibitor, single point]
COc1ccc(S(=O)(=O)N2CCCC(C(=O)NCc3ccccc3)C2)cc1 (centres undefined) 14.1 µM [activator, single point]
CC(C)(C)c1ccc(S(=O)(=O)N2CCN(CCC#N)CC2)cc1 15.8 µM [activator, single point]
CCn1cc(S(=O)(=O)NCc2ccc3c(c2)OCO3)cn1 35.5 µM [inhibitor, partial curve]
Cc1cc(N/N=C/c2ccc(Cl)cc2)nc(NCc2ccccc2)n1 35.5 µM [inhibitor, single point]

No new results follow: an excerpt of the list.
Potency, inconclusive:
Cc1ccc(NS(=O)(=O)c2c(C)nc3sccn3c2=O)cc1C 31.6 µM [activator, single point]
Cc1ccc(/C=C/C(=O)N2CCCC(C)C2)cc1 (centres undefined) 15.8 µM [inhibitor, single point]
COc1ccc(-c2noc(CCC(=O)Nc3cccnc3)n2)cc1 17.8 µM [inhibitor, partial curve, poor fit]
